The source of these data is article doi:10.1101/2023.04.28.538665.

No constants are given. Whether binding was seen depends on the method and setting. Binding seen in cells or lysates may run through a third protein. Binding can be weak; no strength is given.

In the assay the target is mRFP-tagged Shank3 N-terminus (SPN+Ank) (rat) (UniProt Q9JLU4). The assay can be described thus: co-IP.

Take “HA-tagged Rap1a G12V (from UniProt P62834 1-184)”: the binding entry was “binds”.
